The source of these data is paper PMC12075709.

By UniProt entry, the sequences of proteins in these tests, tags left out. Where a name states a change or a piece, a line headed by the entry shows the natural chain unless it says otherwise. Residues count along the entry.
UniProt P37173, residues 23-166: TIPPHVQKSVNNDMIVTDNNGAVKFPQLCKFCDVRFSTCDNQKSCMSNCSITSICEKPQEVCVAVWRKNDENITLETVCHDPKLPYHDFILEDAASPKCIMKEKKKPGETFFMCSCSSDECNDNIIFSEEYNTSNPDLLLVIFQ

No constants are given. Whether binding was seen depends on the method and setting.

The test addresses chimeric recombinant human TGFBR2-Fc (human) (UniProt P37173). Put plainly: SPR; Biacore T200; receptor-Fc captured on a Protein A sensor chip (~70 RU); rhGDF3 flowed over, two-fold dilutions 12.5 nM-0.391 nM; 20 mM HEPES pH 7.4, 350 mM NaCl, 3.4 mM EDTA, 0.05% P-20, 0.5 mg/ml BSA, 25 °C; 1:1 fit model with mass transport limitations; both purified.

B1: recombinant human GDF3 (Growth Differentiation Factor 3) (ligand, UniProt Q9NR23 251-364)
chain: AAIPVPKLSCKNLCHRHQLFINFRDLGWHKWIIAPKGFMANYCHGECPFSLTISLNSSNYAFMQALMHAVDPEIPQAVCIPTKLSPISMLYQDNNDNVILRHYEDMVVDECGCG
Consider B1, for which the binding result is given as “no binding (tested: 12.5 nM)”.
